Consider two molecules from paper PMC2651131.

Amino acid sequences for entries named in this document (tags omitted). Residues count along the entry.
UniProt Q05030, residues 32-1097: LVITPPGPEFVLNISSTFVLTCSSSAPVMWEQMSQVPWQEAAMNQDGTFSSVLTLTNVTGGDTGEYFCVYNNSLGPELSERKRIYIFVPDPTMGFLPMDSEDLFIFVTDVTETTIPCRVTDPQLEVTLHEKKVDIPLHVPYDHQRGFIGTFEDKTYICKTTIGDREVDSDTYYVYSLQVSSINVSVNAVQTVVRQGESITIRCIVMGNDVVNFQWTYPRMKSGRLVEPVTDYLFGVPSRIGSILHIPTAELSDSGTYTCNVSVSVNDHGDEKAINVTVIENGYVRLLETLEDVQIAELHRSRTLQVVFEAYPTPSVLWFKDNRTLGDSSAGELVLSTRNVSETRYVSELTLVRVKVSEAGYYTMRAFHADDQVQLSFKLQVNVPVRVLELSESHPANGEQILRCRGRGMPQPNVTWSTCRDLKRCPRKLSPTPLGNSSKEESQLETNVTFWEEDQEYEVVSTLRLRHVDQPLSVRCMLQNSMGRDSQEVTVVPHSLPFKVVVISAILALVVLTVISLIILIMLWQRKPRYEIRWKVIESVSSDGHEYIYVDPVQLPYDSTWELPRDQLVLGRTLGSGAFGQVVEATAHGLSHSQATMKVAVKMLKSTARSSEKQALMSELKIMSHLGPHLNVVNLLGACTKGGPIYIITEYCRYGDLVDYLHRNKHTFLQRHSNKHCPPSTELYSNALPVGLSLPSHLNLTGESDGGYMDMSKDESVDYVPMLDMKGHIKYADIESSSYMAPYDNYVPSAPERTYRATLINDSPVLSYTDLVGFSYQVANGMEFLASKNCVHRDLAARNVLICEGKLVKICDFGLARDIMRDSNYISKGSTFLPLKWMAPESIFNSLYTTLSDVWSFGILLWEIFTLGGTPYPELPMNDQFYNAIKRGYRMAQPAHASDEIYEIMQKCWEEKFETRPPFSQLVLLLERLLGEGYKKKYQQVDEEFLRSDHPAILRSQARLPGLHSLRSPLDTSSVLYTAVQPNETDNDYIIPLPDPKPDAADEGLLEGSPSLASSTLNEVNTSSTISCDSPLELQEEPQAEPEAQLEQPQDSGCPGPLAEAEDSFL
UniProt E9PT20: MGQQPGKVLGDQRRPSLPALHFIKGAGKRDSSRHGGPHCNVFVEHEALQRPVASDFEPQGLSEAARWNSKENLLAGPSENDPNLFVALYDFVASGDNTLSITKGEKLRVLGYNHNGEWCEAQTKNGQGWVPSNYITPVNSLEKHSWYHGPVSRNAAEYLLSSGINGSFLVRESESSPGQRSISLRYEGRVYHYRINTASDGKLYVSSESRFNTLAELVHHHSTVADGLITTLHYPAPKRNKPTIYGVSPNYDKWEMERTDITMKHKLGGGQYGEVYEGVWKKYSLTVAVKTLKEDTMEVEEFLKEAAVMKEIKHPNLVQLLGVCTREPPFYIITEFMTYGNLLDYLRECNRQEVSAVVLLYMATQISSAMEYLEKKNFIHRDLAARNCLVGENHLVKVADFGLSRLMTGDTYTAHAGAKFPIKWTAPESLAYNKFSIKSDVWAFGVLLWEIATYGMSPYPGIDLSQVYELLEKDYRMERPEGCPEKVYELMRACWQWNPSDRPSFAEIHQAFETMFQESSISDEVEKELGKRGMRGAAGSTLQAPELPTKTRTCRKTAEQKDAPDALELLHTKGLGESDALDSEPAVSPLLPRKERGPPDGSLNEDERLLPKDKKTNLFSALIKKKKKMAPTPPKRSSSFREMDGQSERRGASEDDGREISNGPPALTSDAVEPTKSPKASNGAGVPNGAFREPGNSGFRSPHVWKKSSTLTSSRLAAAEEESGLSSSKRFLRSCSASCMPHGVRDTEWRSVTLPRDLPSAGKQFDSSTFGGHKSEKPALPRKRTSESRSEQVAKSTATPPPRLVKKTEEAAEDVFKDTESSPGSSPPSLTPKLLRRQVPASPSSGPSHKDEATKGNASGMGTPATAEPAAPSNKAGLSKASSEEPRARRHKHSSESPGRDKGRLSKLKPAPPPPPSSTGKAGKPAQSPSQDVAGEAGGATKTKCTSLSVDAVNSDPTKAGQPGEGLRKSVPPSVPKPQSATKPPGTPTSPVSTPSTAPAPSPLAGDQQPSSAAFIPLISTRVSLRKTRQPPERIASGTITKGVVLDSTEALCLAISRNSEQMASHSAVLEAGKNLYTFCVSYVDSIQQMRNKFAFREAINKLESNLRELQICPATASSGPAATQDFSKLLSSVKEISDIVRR

Results are given in words; binding and its absence hold for the method and conditions named. In cells and extracts the contact can be indirect. Some binding calls cover weakened binding; strength is not graded here.

For assay [1], the target named is PDGFβ receptor (rat (endogenous in CA1 hippocampal slices)) (UniProt Q05030). Nature of the assay: co-IP; lysate of rat CA1 hippocampal slices (incubated 10 min without or with 10 ng/mL PDGF-BB), 1% NP-40 buffer; anti-PDGFβ receptor antibody precoupled to agarose beads; blot with anti-Abl.
Assay [2] has as its target Abelson tyrosine kinase (rat (endogenous in CA1 hippocampal slices)) (UniProt E9PT20). The experiment in a line: co-IP; lysate of rat CA1 hippocampal slices (incubated 10 min with vehicle or 10 ng/mL PDGF-BB), 1% NP-40 buffer; anti-Abl antibody and protein A/G beads overnight at 4°C; blot with anti-PLCγ or anti-WAVE1.

As for “Abelson tyrosine kinase (from UniProt E9PT20 1-1143) (enzyme)”, the binding entry in assay [1] is given as “binds”.

B1: WAVE1 (protein, UniProt Q5BJU7 1-559)
chain: MPLVKRNIDPRHLCHTALPRGIKNELECVTNISLANIIRQLSSLSKYAEDIFGELFNEAHSFSFRVNSLQERVDRLSVSVTQLDPKEEELSLQDITMRKAFRSSTIQDQQLFDRKTLPIPLQETYDVCEQPPPLNVLTPYRDDGKEGLKFYTNPSYFFDLWKEKMLQDTEDKRKEKRKQKQKNLDRPHEPEKVPRAPHDRRREWQKLAQGPELAEDDADLLHKHIEVANGPASHFETRPQTYVDHMDGSYSLSALPFSQMSELLSRAEERVLVRPHEPPPPPPMHAAGDARPTPTCVSSAAGLIENRPQSPAAGRTPVFVSPTPPPPPPPLPSALSTSSLRASMTSTPPPPVPPPPPPPAPALQAPAVPPPPAPLQIAPGVLHPAPPPIAPPLVQPSPPVARAAPVCETVPVHPLPQGEVQGLPPPPPPPPLPPPGIRPSSPVTVAALAHPPSGLHPTPSPAPGPHAPLMPPSPPSQVLPASEPKRHPSTLPVISDARSVLLEAIRKGIQLRKVEEQREQEAKHERIENDVATILSRRIAVEYSDSEDDSEFDEVDWLE
For the molecule B1, in assay [2], the binding result is reported as “binds”.
